Assay results reported in patent publication US20180282401A1.
Results are given in words; binding and its absence hold for the method and conditions named. Some entries that bind do so weakly or less than the wild type.

Chains of the proteins cited; added tags and fusions are not shown. Lines headed by an entry give the natural chain unless they say otherwise; changes in a name come on top. A line that says so, or that is headed by a name, gives the form on record, which may keep a tag or linker.
rat endogenous tau (P19332, form named): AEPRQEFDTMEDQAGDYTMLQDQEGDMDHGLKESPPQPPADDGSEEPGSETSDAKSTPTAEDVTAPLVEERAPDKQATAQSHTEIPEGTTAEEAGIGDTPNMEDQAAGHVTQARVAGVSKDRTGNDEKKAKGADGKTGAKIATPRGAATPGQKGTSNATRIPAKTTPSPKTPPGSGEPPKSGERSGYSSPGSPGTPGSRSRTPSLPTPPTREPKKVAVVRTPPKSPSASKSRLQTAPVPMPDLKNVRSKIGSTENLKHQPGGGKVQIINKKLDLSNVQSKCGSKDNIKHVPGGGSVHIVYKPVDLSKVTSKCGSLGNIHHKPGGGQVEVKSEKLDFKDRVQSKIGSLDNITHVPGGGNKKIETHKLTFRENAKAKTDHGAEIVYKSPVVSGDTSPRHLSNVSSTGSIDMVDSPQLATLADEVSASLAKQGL

Assays:
[1] = molecular target: rat endogenous tau (rat) (UniProt P19332); assay: immunoblot of brain extracts (soluble and sarkosyl-insoluble fractions) with DC8E8 hybridoma culture supernate, anti-mouse Ig-HRP
[2] = molecular target: 352-380/R4; assay: ELISA, synthetic peptide coated (5 µg/ml), DC8E8 hybridoma culture supernate, anti-mouse Ig-HRP, absorbance 492 nm
[3] = molecular target: rat endogenous tau (rat) (UniProt P19332); assay: immunoblot of soluble and sarkosyl-insoluble brain fractions
[4] = molecular target: rat endogenous tau (rat) (UniProt P19332); assay: immunoblot of brain fractions

Measured: binding

B1: monoclonal antibody DC8E8 (antibody, V domains shown)
VH: QVQLQQSGPELVKPGTSVKMPCKASGYIFTDYVISWVKQRTGQGLEWIGEIFPRSGSTYYNEKFKGKATLTADKSSNTAYMQLSSVTSEDSAVYFCARDYYGTSFAMDYWGQGTSVTVSS
VL: DIVMSQSPSSLAVSAGEKVTMSCKSSQSLLNSRTRKNYLAWYQQKPGQSPKLLIYWASTRESGVPDRFTGSGSGTDFTLTISSVQAEDLAVYYCKQSFYLRTFGGGTKLDIK
binds: all assays above
